Laboratory results taken from PMC6166728, “Structure–function analyses of the bacterial zinc metalloprotease effector protein GtgA uncover key residues required for deactivating NF-κB” (The Journal of Biological Chemistry, 2018).
No constants are given. Whether binding was seen depends on the method and setting. For some of these results: In cells and extracts the contact can be indirect. Some entries that bind do so weakly or less than the wild type.

By UniProt entry, the sequences of proteins in these tests, tags left out.
UniProt Q04206: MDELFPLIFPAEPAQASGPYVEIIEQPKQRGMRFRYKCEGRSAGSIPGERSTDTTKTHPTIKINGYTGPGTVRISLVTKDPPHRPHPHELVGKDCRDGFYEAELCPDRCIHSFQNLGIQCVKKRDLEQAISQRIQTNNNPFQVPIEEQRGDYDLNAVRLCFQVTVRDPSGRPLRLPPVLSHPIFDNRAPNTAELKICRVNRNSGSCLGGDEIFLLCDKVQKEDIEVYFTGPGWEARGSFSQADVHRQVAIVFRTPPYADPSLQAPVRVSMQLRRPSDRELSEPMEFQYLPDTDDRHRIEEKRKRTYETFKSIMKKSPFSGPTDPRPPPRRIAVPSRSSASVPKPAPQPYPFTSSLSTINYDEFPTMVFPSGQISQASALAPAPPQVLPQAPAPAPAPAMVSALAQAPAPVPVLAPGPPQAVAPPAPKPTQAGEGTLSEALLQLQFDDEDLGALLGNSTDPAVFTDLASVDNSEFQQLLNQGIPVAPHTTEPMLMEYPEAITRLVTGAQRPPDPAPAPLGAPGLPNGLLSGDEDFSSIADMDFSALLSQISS

Tests used:
[1] = target: GtgA(20–228)^E183Q (Salmonella Typhimurium strain ATCC 14028s); assay: SEC; HiLoad 16/60 Superdex 75, 25 mM HEPES pH 7.5, 150 mM NaCl, 0.5 mM TCEP; GtgA(20–228)^E183Q alone; both purified
[2] = target: GtgA(20–228)^E183Q (Salmonella Typhimurium strain ATCC 14028s); assay: crystal structure; Zn2+-bound GtgA(20–228)^E183Q alone, 24 mg/ml; sitting drop, 20 °C, 0.1 M Tris pH 8.5, 25% (v/v) isopropyl alcohol, 20% (w/v) PEG 3350; two molecules in the asymmetric unit; both purified
[3] = target: His6–GST–GtgA^E183A/S160A (Salmonella Typhimurium strain ATCC 14028s); assay: pull-down; LUMIER binding assay: 5 μg purified GST or His6–GST–GtgA variant and GSH–Sepharose 4B incubated 2 h at 4 °C with post-nuclear supernatant of 293ET cells expressing p65–Renilla; 20 mM Tris pH 7.4, 150 mM NaCl, 5% glycerol, 0.1% Triton X-100; eluted with 10 mM GSH, Renilla luciferase activity read; only the target purified
[4] = target: His6–GST–GtgA^E183A/Q192A (Salmonella Typhimurium strain ATCC 14028s); assay: as above
[5] = target: His6–GST–GtgA^E183A/R221A (Salmonella Typhimurium strain ATCC 14028s); assay: as above
[6] = target: His6–GST–GtgA^E183A/D159A (Salmonella Typhimurium strain ATCC 14028s); assay: as above
[7] = target: His6–GST–GtgA^E183A (Salmonella Typhimurium strain ATCC 14028s); assay: as above

Substance	binding [1]	binding [2]	binding [3]	binding [4]	binding [5]	binding [6]	binding [7]
GtgA(20–228)^E183Q (from UniProt A0A0F6AZI6 20-228) (enzyme)	no binding	no binding	–	–	–	–	–
p65–Renilla (from UniProt Q04206 1-551)	–	–	binds	binds	binds	binds	binds
